Assay results as given in publication PMC3728621, “Structural analysis of autoinhibition in the Ras-specific exchange factor RasGRP1” (eLife, 2013).
These are yes or no findings as the source states them, for the method shown. Some entries that bind do so weakly or less than the wild type.

Target: RasGRP1^CC (human RasGRP1 C-terminal coiled coil, residues 739-793) (human) (UniProt O95267)
Experiment: crystal structure; RasGRP1^CC at 1.6 Å; 20 mM sodium acetate pH 3.6, 22% PEG 3350, 100 mM lithium sulfate, 0.4% formamide; two molecules in the asymmetric unit; both purified

B1: RasGRP1^CC (human RasGRP1 C-terminal coiled coil, residues 739-793) (domain or fragment, UniProt O95267 739-793, looked up)
chain: ELRHLRLPTYQELEQEINTLKADNDALKIQLKYAQKKIESLQLEKSNHVLAQMEQ
notes: human RasGRP1 (full length 797 residues), residues 739-793, containing the predicted coiled coil (747-789); Parallel dimeric coiled coil; The model holds residues 745-793 (molecule A) and 745-786 (molecule B); also called C-terminal oligomerization domain; source: E. coli BL21(DE3), purified (HisTrap, tag removal with ULP1, second HisTrap, Superdex gel filtration); not shown: His6, N-terminal, …
  binding: binds
